The values below come from paper PMC4063743.

Results are given in words; binding and its absence hold for the method and conditions named. Binding seen in cells or lysates may run through a third protein. Some results given as binding are weak or reduced against the parent protein; the word gives no strength. Sequences can lack the tags named with a protein.

The assay addresses T1, GST-Vvl fusion protein (Tribolium Ventral veins lacking/Drifter) (Tribolium castaneum) (UniProt C0KZ11).
T1 sequence: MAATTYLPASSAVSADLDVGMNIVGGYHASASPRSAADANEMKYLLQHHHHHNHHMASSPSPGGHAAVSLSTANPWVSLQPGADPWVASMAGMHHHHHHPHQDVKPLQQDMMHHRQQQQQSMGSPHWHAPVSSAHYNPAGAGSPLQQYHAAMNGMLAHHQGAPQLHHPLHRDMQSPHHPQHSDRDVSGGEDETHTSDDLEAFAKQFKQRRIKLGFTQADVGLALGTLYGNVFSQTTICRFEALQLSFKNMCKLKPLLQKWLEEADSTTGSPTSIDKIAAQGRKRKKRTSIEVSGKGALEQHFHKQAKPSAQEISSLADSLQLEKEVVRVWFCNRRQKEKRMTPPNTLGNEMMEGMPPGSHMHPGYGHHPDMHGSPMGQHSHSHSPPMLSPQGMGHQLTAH
As to the kind of experiment: pull-down; GST-Vvl held on Glutathione Sepharose 4B, incubated with Flag-Met, Flag-EcRA, Flag-EcRB and/or Flag-Usp for 2 hours at 4°C; Flag-tagged protein detected by anti-Flag M2 blot; only the target purified.

B1: Flag-Usp fusion protein (Tribolium Ultraspiracle) (protein, UniProt A1JUG2 1-407)
chain: MESTDRALSLDQNLSMGSLGAPQSPLDMKPDASTLGQFSPQGPNSPVSFSMGGHGSLLSPSGNTPNKSSTSPYPPNHPLSGSKHLCSICGDRASGKHYGVYSCEGCKGFFKRTVRKDLSYACREEKNCIIDKRQRNRCQYCRYQKCLNMGMKREAVQEERQRTKDRDTSEVESTSNLQADMPLERIIEAEKRVECNDPLVALVVNENNTTVNNICQATHKQLFQLVQWAKLVPHFTSLPLTDQVQLLRAGWNELLIAAFSHRSMQAQDAIVLATGLTVNKSTAHAVGVGNIYDRVLSELVNKMKEMKMDKTELGCLRAIILYNPDVRGIKSVQEVEMLREKIYGVLEEYTRTTHPNEPGRFAKLLLRLPALRSIGLKCLEHLFFFKLIGDVPIDTFLMEMLEGTTDS
As to B1, the binding entry is “binds”.
